Laboratory results from patent US20130090327A1, “Inhibitors of Protein Tyrosine Kinase Activity” (METHYLGENE INC., priority 2011, published 2013).
The match of structure and compound is tentative.

By UniProt entry, the sequences of proteins in these tests, tags left out. Residues count along the entry.
UniProt P35968, 806-1356 limits assumed: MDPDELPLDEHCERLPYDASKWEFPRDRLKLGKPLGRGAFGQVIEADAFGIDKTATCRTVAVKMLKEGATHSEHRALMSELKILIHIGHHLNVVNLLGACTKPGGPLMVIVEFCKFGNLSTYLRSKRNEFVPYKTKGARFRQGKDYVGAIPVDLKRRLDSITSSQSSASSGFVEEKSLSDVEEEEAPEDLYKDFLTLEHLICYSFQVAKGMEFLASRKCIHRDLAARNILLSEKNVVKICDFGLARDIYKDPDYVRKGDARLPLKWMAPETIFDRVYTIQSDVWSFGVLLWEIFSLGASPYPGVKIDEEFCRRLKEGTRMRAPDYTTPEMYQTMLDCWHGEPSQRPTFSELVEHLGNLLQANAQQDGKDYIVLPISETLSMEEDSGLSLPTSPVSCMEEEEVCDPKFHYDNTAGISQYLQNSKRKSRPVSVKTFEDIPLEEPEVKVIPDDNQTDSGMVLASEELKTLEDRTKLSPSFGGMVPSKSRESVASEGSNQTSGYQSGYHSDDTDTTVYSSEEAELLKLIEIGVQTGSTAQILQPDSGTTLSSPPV

Molecular target: VEGFR2 (KDR) (Homo sapiens, UniProt P35968)
Assay: In Vitro Receptor Tyrosine Kinase Assay (VEGF Receptor KDR)
Settings: read-out: VEGFR_IC50_UM; recombinant GST-VEGFR2 806-1356, DELFIA assay, ATP 0.6 uM, enzyme 5 nM
Source text: In Vitro Receptor Tyrosine Kinase Assay (VEGF Receptor KDR)
This test measures the ability of compounds to inhibit the enzymatic activity of recombinant human VEGF receptor enzymatic activity.
A 1.6-kb cDNA corresponding to the catalytic domain of VEGFR2 (KDR) (Genbank accession number AF035121 amino acid 806 to 1356) is cloned into the Pst I site of the pDEST20 Gateway vector (Invitrogen) for the production of a GST-tagged version of that enzyme. This construct is used to generate recombinant baculovirus using the Bac-to-Bac™ system according to the manufacturer's instructions (Invitrogen).
The GST-VEGFR2806-1356 protein is expressed in Sf9 cells (Spodoptera frugiperda) upon infection with recombinant baculovirus construct. Briefly, Sf9 cells grown in suspension and maintained in serum-free medium (Sf900 II supplemented with gentamycin) at a cell density of about 2×10^6 cells/ml are infected with the above-mentioned viruses at a multiplicity of infection (MOI) of 0.1 during 72 hours at 27° C. with agitation at 120 rpm on a rotary shaker. […]
Inhibition of VEGFR/KDR is measured in a DELFIA™ assay (Perkin Elmer). […] Phosphorylated product is detected by incubation with Europium-labeled anti-phosphotyrosine MoAb. After washing the plates, bound MoAb is detected by time-resolved fluorescence in a Gemini SpectraMax reader (Molecular Devices). […]

CC(=O)N1CC(NC(=O)Nc2ccc(Oc3ccnc4cc(-c5ccc(CN6CC(N)C6)cn5)sc34)c(F)c2)C1 [Compound 46]
IC50: 193 nM
